Test [1] concerns the target T1, φNM1 phage dUTPase (Staphylococcus aureus phage φNM1) (UniProt A0EWK2).
T1 sequence: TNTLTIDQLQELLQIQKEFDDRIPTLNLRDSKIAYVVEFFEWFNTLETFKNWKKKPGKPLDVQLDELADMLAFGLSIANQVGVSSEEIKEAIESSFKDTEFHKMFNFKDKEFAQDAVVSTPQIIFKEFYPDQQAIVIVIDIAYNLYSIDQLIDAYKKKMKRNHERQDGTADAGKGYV
As to the kind of experiment: native gel or EMSA; 12% polyacrylamide, Tris-HCl pH 8.7, cooled on ice; proteins alone or premixed at various molar ratios; both purified. A general note: In EMSA bound probe runs differently from free probe, usually more slowly.

Test [2] addresses T1, φNM1 phage dUTPase (Staphylococcus aureus phage φNM1). As to the kind of experiment: HDX-MS; labelling at 20 °C for 1, 10 and 100 min in 20 mM HEPES, 300 mM NaCl, 5 mM MgCl2 in D2O, pD 7.1; proteins alone or pre-mixed at about equimolar concentrations; pepsin digestion; both purified.

No constants are given. Whether binding was seen depends on the method and setting. Binding calls can cover weak binding; strength is not graded here.

As for “Stl repressor protein of S. aureus pathogenicity island SaPIbov1”, the binding result in test [1] and in test [2] was “binds” in each case.

Values taken from publication PMC6770826, “HDX and Native Mass Spectrometry Reveals the Different Structural Basis for Interaction of the Staphylococcal Pathogenicity Island Repressor Stl with Dimeric and Trimeric Phage dUTPases” (Biomolecules, 2019).
